Measurements as given in PubChem BioAssay AID330 (DTP/NCI, 2004).
The list shows only some results of the screen, not a fair sample: it is rich in T/C values a quarter to a half above the control, in often repeated tests (any T/C) and in doses without a T/C. Further doses and runs are listed elsewhere. T/C is the treated group as % of the vehicle group. Some doses have a count of surviving animals in place of a T/C: the source holds a T/C of zero for them, seemingly a mark for toxic or unscored doses. Some survivor counts are full or nearly so, which does not show that the dose was tolerated: the source hardly ever lists a survival T/C far under the control, and the zero likely stands for such cases as well. Survivors were counted at the toxicity check, usually on the fifth day, unless a day is given; later deaths do not show. Schedules are NCI's codes, read here as Q, the interval in days (D) or hours (H), X, the number of doses. For survival time, this PubChem deposit counts one and a half times the control or more as active, and values a quarter to a half above the control carry no call in these data; other NCI protocols may use other cut-offs. Some T/C values carry the count of animals alive at the toxicity check (mostly the fifth day); where none is given, no animal had died by that day.

Test system: P388 leukemia ip, CD2F1 mice, survival T/C
Assay: NCI In Vivo Anticancer Drug Screen. Data for tumor model P388 Leukemia (intraperitoneal) in CD2F1 (CDF1) mice
Settings: T/C endpoint: median survival time, higher T/C = longer survival
[1] = dose: 240.0 mg/kg/injection, schedule: Q01DX005 (ip), vehicle: Klucel (hydroxypropylcellulose) (HPC)
[2] = dose: 200.0 mg/kg/injection, schedule: Q01DX009 (ip), vehicle: saline with Tween-80
[3] = dose: 400.0 mg/kg/injection, schedule: Q01DX009 (ip), vehicle: saline with Tween-80
[4] = dose: 50.0 mg/kg/injection, schedule: Q01DX005 (ip), vehicle: saline with Tween-80
[5] = dose: 100.0 mg/kg/injection, schedule: Q01DX005 (ip), vehicle: saline with Tween-80
[6] = dose: 200.0 mg/kg/injection, schedule: Q01DX005 (ip), vehicle: saline with Tween-80
[7] = dose: 12.5 mg/kg/injection, schedule: Q01DX005 (ip), vehicle: saline
[8] = dose: 100.0 mg/kg/injection, schedule: Q01DX005 (ip), vehicle: saline
[9] = dose: 200.0 mg/kg/injection, schedule: Q01DX005 (ip), vehicle: saline
[10] = dose: 240.0 mg/kg/injection, schedule: Q01DX005 (ip), vehicle: saline with Tween-80
[11] = dose: 120.0 mg/kg/injection, schedule: Q01DX005 (ip), vehicle: saline with Tween-80
[12] = dose: 100.0 mg/kg/injection, schedule: Q01DX009 (ip), vehicle: saline

## CC[C@@]1(O)C(=O)OCc2c1cc1n(c2=O)Cc2cc3c(OC)cccc3nc2-1
dose: 0.75 mg/kg/injection, schedule: Q01DX009 (ip), vehicle: saline with Tween-80
  T/C: 149 % of control
dose: 0.79 mg/kg/injection, schedule: Q04DX003 (ip), vehicle: other
  T/C: 128 % of control
dose: 1.57 mg/kg/injection, schedule: Q04DX003 (ip), vehicle: other
  T/C: 136 % of control
dose: 12.5 mg/kg/injection, schedule: Q04DX003 (ip), vehicle: other
  survivor count: 1 of 6

## Cc1c(C2=C(Br)C(=O)N(C)C2=O)c(=O)n(C)c(=O)n1C
[1]
  survivor count: 0 of 6

## CC1(C)CCCc2c(-c3ccccc3)cc3c4ccccc4cc[n+]3c21
[2]
  survivor count: 6 of 6

## CC1CN1P(=S)(Oc1ccccc1)N1CC1C (configuration not stated)
[2]
  T/C: 125 % of control
dose: 264.0 mg/kg/injection, schedule: Q01DX009 (ip), vehicle: saline with Tween-80
  survivor count: 6 of 6
[3]
  T/C: 135 % of control
  survivor count: 1 of 6
dose: 600.0 mg/kg/injection, schedule: Q01DX009 (ip), vehicle: saline with Tween-80
  survivor count: 3 of 6

## O=C1CS(=O)(=O)C(c2ccc(Cl)cc2)N1N1C(=O)CS(=O)(=O)C1c1ccc(Cl)cc1 (configuration not stated)
[4]
  survivor count: 5 of 5
[5]
  survivor count: 6 of 6
[6]
  survivor count: 6 of 6

## O=C(NCCCCCCCCCCNC(=O)N1CC1)N1CC1
dose: 1.0 mg/kg/injection, schedule: Q04DX003 (ip), vehicle: saline with Tween-80
  T/C: 129 % of control
dose: 1.56 mg/kg/injection, schedule: Q04DX003 (ip), vehicle: saline with Tween-80
  T/C: 138 % of control
dose: 3.13 mg/kg/injection, schedule: Q01DX009 (ip), vehicle: saline with Tween-80
  T/C: 125 % of control
dose: 6.25 mg/kg/injection, schedule: Q04DX003 (ip), vehicle: saline with Tween-80
  T/C: 133 % of control
dose: 12.5 mg/kg/injection, schedule: Q04DX003 (ip), vehicle: saline with Tween-80
  survivor count: 6 of 6
dose: 25.0 mg/kg/injection, schedule: Q04DX003 (ip), vehicle: saline with Tween-80
  survivor count: 3 of 6

## O=C(Nc1cccc(C2=NCCCN2)c1)Nc1ccc(NC(=O)Nc2cccc(C3=NCCCN3)c2)c(Cl)c1
dose: 2.5 mg/kg/injection, schedule: Q04DX003 (ip), vehicle: saline with Tween-80
  T/C: 129 % of control
dose: 5.0 mg/kg/injection, schedule: Q04DX003 (ip), vehicle: saline with Tween-80
  T/C: 137 % of control
dose: 40.0 mg/kg/injection, schedule: Q04DX003 (ip), vehicle: saline with Tween-80
  survivor count: 6 of 6
dose: 60.0 mg/kg/injection, schedule: Q04DX003 (ip), vehicle: saline with Tween-80
  survivor count: 1 of 6
dose: 80.0 mg/kg/injection, schedule: Q04DX003 (ip), vehicle: saline
  survivor count: 6 of 6

## Clc1ccc([Si]23OCCN(CCO2)CCO3)cc1
dose: 1.56 mg/kg/injection, schedule: Q01DX009 (ip), vehicle: Klucel (hydroxypropylcellulose) (HPC)
  survivor count: 0 of 6
dose: 3.12 mg/kg/injection, schedule: Q01DX009 (ip), vehicle: Klucel (hydroxypropylcellulose) (HPC)
  survivor count: 0 of 6
dose: 6.25 mg/kg/injection, schedule: Q01DX009 (ip), vehicle: Klucel (hydroxypropylcellulose) (HPC)
  survivor count: 0 of 6

## C[CH2][Sn]([CH2]C(=O)OC)([CH2]C(=O)OC)[c]1ccccc1
[7]
  T/C: 139 % of control
dose: 50.0 mg/kg/injection, schedule: Q01DX005 (ip), vehicle: saline
  T/C: 143 % of control
[8]
  survivor count: 0 of 6
[9]
  survivor count: 0 of 6

## CCN(CC)CCNc1ccc(COC(C)=O)c2oc3ccccc3c(=O)c12
dose: 25.0 mg/kg/injection, schedule: Q01DX005 (ip), vehicle: saline with Tween-80
  T/C: 125 % of control
[4]
  survivor count: 6 of 6

## COc1cc(NC(=O)CN(CCCl)CCCl)cc(OC)c1OC
dose: 50.0 mg/kg/injection, schedule: Q01DX009 (ip), vehicle: saline sonified
  T/C: 145 % of control
dose: 100.0 mg/kg/injection, schedule: Q04DX003 (ip), vehicle: saline with Tween-80
  T/C: 131 % of control
[2]
  survivor count: 1 of 6
dose: 200.0 mg/kg/injection, schedule: Q04DX003 (ip), vehicle: saline with Tween-80
  T/C: 145 % of control [5 of 6 alive]
dose: 300.0 mg/kg/injection, schedule: Q04DX003 (ip), vehicle: saline sonified
  T/C: 125 % of control [5 of 6 alive]
dose: 400.0 mg/kg/injection, schedule: Q04DX003 (ip), vehicle: saline with Tween-80
  survivor count: 6 of 6

## NNC(=O)COc1ccc(Br)cc1Br
[10]
  survivor count: 4 of 6

## O=C(O)CSC(=S)CCCCCCCCCCC(=S)SCC(=O)O
[5]
  survivor count: 3 of 6
[6]
  survivor count: 0 of 6

## Nc1nc2c(=O)[nH]c(=O)[nH]c2n1C1OC(CO)C(O)C1O (configuration not stated)
[11]
  survivor count: 6 of 6
[10]
  survivor count: 2 of 6

## Cc1cc2nc(NN=O)sc2cc1C
dose: 100.0 mg/kg/injection, schedule: Q01DX009 (ip), vehicle: water
  T/C: 126 % of control
dose: 200.0 mg/kg/injection, schedule: Q01DX009 (ip), vehicle: water
  survivor count: 0 of 6

## CNC(=O)Oc1ccccc1OC(C)C
dose: 30.0 mg/kg/injection, schedule: Q01DX005 (ip), vehicle: Klucel (hydroxypropylcellulose) (HPC)
  survivor count: 0 of 6
dose: 60.0 mg/kg/injection, schedule: Q01DX005 (ip), vehicle: Klucel (hydroxypropylcellulose) (HPC)
  survivor count: 0 of 6
dose: 120.0 mg/kg/injection, schedule: Q01DX005 (ip), vehicle: Klucel (hydroxypropylcellulose) (HPC)
  survivor count: 0 of 6
[1]
  survivor count: 0 of 6

## CCOC(=O)c1[nH]c(C)nc1/N=N/N(C)C
[12]
  T/C: 125 % of control
dose: 400.0 mg/kg/injection, schedule: Q01DX009 (ip), vehicle: saline
  survivor count: 6 of 6

## COc1ccc(CCNC2Oc3ccc([N+](=O)[O-])cc3-c3nc(C)c(C#N)cc32)cc1OC (configuration not stated)
[11]
  survivor count: 6 of 6
[10]
  survivor count: 6 of 6

## CCCCCCCCOCC(O)CN(CCO)CCO (configuration not stated)
[12]
  survivor count: 5 of 6
dose: 200.0 mg/kg/injection, schedule: Q01DX009 (ip), vehicle: saline
  survivor count: 0 of 6

## Clc1ccc(-c2n[se]c(-c3ccc(Cl)cc3)n2)cc1
dose: 3.12 mg/kg/injection, schedule: Q01DX009 (ip), vehicle: saline with Tween-80
  survivor count: 6 of 6
dose: 6.25 mg/kg/injection, schedule: Q01DX009 (ip), vehicle: saline with Tween-80
  survivor count: 6 of 6
dose: 12.5 mg/kg/injection, schedule: Q01DX009 (ip), vehicle: saline with Tween-80
  survivor count: 6 of 6
dose: 50.0 mg/kg/injection, schedule: Q01DX009 (ip), vehicle: saline with Tween-80
  survivor count: 6 of 6
dose: 100.0 mg/kg/injection, schedule: Q01DX009 (ip), vehicle: saline with Tween-80
  survivor count: 3 of 6
[2]
  survivor count: 0 of 6

## C=CC1CCCC[S+]1CC(=O)OCC (configuration not stated)
dose: 200.0 mg/kg/injection, schedule: Q04DX002 (ip), vehicle: saline with Tween-80
  survivor count: 5 of 6
dose: 400.0 mg/kg/injection, schedule: Q04DX002 (ip), vehicle: saline with Tween-80
  survivor count: 0 of 6

## CN(C)CCN(C)c1cccc2c1C(=O)c1cscc1C2=O
[7]
  T/C: 144 % of control
[8]
  survivor count: 0 of 6
[9]
  survivor count: 0 of 6

## O=C1C2=C(Nc3cc([N+](=O)[O-])ccc3N2)OC1c1c2ccccc2cc2ccccc12 (configuration not stated)
[1]
  survivor count: 6 of 6

## Cc1ccc(S(=O)(=O)OI(C#CC(C)(C)C)c2ccccc2)cc1
dose: 100.0 mg/kg/injection, schedule: Q01DX005 (ip), vehicle: Klucel (hydroxypropylcellulose) (HPC)
  survivor count: 6 of 6
dose: 200.0 mg/kg/injection, schedule: Q01DX005 (ip), vehicle: Klucel (hydroxypropylcellulose) (HPC)
  survivor count: 0 of 6

## COc1cc(C(c2cc3c(cc2OC(C)=O)OCO3)C(C(C)=O)C(C)=O)cc(OC)c1OC(C)=O (configuration not stated)
[10]
  survivor count: 6 of 6
